The experiment concerns the target T1, FLAG-ATG9A (3×FLAG-tagged ATG9A, on ATG9 vesicles) (UniProt Q7Z3C6).
T1 sequence: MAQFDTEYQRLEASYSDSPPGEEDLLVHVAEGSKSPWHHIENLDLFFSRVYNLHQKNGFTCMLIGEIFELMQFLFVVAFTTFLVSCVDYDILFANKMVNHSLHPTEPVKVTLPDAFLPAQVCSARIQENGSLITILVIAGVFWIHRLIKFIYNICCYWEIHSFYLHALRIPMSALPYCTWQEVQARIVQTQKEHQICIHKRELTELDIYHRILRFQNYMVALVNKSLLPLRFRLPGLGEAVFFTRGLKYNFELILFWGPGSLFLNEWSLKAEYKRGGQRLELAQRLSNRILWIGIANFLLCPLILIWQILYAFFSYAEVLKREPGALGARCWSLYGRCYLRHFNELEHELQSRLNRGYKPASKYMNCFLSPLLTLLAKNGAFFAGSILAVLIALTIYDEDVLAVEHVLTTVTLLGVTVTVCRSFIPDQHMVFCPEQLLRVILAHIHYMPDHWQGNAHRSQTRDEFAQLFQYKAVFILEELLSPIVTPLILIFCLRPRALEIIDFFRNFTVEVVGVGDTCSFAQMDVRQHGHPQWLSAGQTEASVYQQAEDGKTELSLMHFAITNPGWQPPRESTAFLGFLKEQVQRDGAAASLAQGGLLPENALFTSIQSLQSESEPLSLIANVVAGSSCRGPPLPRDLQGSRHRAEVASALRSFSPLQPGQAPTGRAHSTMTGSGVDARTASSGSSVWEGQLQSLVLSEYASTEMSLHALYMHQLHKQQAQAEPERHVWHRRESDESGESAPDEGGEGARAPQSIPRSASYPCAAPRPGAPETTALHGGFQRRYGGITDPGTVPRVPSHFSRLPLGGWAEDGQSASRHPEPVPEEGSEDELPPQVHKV
Briefly: co-IP; organelle immunoprecipitation: ATG9 vesicles precipitated by FLAG M2 beads from Dounce homogenate in hypotonic buffer (10 mM HEPES pH 7.9, 1.5 mM MgCl2, 10 mM KCl, no detergent named), cells 60 min after CCCP; GFP blotted.

These are yes or no findings as the source states them, for the method shown. In cells and extracts the contact can be indirect. A result given as binding can be weak or reduced; the word gives no strength. Sequences can lack the tags named with a protein.

For “GFP–OPTNΔUBAN (muGFP-tagged optineurin lacking the UBAN domain, aa 445–502)”, the binding result is “binds”.
